This note sets out measurements from PMC10531280.

The chains behind the UniProt entries cited, without tags or fusion partners. Where a name states a change or a piece, a line headed by the entry shows the natural chain unless it says otherwise.
UniProt Q9BST9: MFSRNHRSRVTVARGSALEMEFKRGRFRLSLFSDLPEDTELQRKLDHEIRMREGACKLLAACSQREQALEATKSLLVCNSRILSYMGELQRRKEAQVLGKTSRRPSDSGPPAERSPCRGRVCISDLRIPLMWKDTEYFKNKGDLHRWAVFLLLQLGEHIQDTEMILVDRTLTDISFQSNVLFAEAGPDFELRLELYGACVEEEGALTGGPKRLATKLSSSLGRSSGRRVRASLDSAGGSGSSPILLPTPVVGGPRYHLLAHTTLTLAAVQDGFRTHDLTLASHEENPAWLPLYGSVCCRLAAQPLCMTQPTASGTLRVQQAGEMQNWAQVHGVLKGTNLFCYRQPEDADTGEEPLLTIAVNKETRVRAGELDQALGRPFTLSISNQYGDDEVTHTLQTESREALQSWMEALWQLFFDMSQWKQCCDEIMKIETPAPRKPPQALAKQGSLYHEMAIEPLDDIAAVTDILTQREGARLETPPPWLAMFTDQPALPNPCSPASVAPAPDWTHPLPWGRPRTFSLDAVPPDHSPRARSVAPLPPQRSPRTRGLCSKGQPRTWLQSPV
UniProt P61586: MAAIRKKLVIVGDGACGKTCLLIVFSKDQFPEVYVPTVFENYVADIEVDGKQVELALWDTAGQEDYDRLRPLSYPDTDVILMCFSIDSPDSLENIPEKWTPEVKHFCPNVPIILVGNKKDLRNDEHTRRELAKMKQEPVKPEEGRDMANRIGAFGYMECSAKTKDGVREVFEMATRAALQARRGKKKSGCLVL

For this experiment, the target named is GST-Rhotekin-Rho binding domain (RBD) (UniProt Q9BST9). Nature of the experiment: pull-down; GST-Rhotekin-RBD beads; cell lysate (500 µg protein) loaded with 0.1 mM GTPγS (10 mM EDTA, 30 °C, 30 min, stopped with 60 mM MgCl2); RhoA detected by Western blotting; only the target purified. (Immunoblotting shows a protein as a band on a membrane.)

No constants are given. Whether binding was seen depends on the method and setting. Binding seen in cells or lysates may run through a third protein. A result given as binding can be weak or reduced; the word gives no strength.

For RhoA (from UniProt P61586 1-193), the binding result is listed as “binds”.
